Where no end group is shown, it is not given here. The star is where a group is joined. FITC = O=C1OC2(c3ccc(O)cc3Oc3cc(O)ccc32)c2ccc(NC(=S)*)cc21; GABA = NCCCC(=O)O

The nature of one data set: peptide synthesis. As to conditions: whole synthesis.
As for {FITC-GABA}-KNAIQARKCGRKVRRNKR, the isolated yield is given as 8%.

Turning to {FITC-GABA}-IRRRGKNKVAAQNCRKRK, the isolated yield was determined as 5%.

In the case of FITC-GABA-IRRRR8KNKVAAS5NCRKRK, the isolated yield was 8%.

Substance FITC-GABA-IRRRGKNKR5AAS5NCRKRK had an isolated yield of 3%.

FITC-GABA-RRRS5KNKS5AAQNCRKRK: the isolated yield is 7%.

For FITC-GABA-S5RRRS5KNKVAAQNCRKRK, the isolated yield came to 5%.

A short description of a further data set: general procedure: Fmoc solid-phase peptide synthesis; Rink amide or MBHA Rink amide resin; Rink Amide MBHA LL resin (0.38 mmol/g); PyClocK, DIPEA in DMF. As to conditions: whole synthesis.
In turn, Ac-IRRRR8KNKVAAS5NCRKRK gave an isolated yield of 9%.

In turn, Ac-IRRRGKNKVAAQNCRKRK had an isolated yield of 8%.

In the case of Ac-S5RRRS5KNKVAAQNCRKRK, the isolated yield came out at 7%.

As to Ac-KNAIQARKCGRKVRRNKR, the isolated yield is given as 6%.

Take Ac-RRRS5KNKS5AAQNCRKRK: the isolated yield is recorded as 9%.

Ac-IRRRGKNKR5AAS5NCRKRK displayed an isolated yield of 6%.
